Measurements reported in patent publication US20240398989A1, “METHODS AND COMPOSITIONS FOR DIAGNOSIS AND TREATMENT OF METABOLIC DISORDERS” (The Broad Institute, Inc., priority 2021, published 2024).
For at least one entry, the source does not settle the construct or the ends of the probe. At least one result comes from cells or an extract, where the contact may be indirect. A weaker result is weaker than the reference pair of the same experiment.

Test system: POU2F2 (putative + adipocyte progenitor nuclear extract) (Homo sapiens)
Experiment: EMSA
Settings: 1 mM MgCl2, 50 mM NaCl, poly(dI-dC), 4 C, protein in an extract, label: Cy5 forward strand

Sequence | binding result (T-to-C change alters binding, less than T allele, variant of rs6712203 T allele probe) | binding result (increased binding to T allele, POU2F2 identity suggested by motif and IGR analysis)
TTAATTTGCCTCATTCATCACATGCAATTCTGGCAAGGAA (double strand) [rs6712203 C allele probe] | binds more weakly | 
TTAATTTGCCTCATTCATCATATGCAATTCTGGCAAGGAA (double strand) [rs6712203 T allele probe] |  | binds
